From the supplement of paper PMC7661543
± gives the standard deviation of the averaged measurements. Differences between knockout arms are mostly noise.

System: ZR-75-1
Experiment: relative cell number vs DMSO control (72 h) (% of DMSO); higher = less growth inhibition (more cells)
Method: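 QMAP-Seq: a pool of 5 breast cancer cell lines (ZR-75-1, SKBR3, HCC-38, MDA-MB-231, BT-20), each carrying 12 doxycycline-inducible Cas9 sgRNA perturbations (11 knockouts plus non-targeting sgNT), was treated with compounds for 72 h at four 10-fold doses (10 nM-10 uM or 1 nM-1 uM range). Barcodes were amplified and sequenced, and cell number was interpolated from 293T spike-in standard curves. The result is expressed as % of the median of DMSO wells. Two biological replicates.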

[1] = sgRNA knockout: sgATF3, 1000 nM
[2] = sgRNA knockout: sgATF3, 10000 nM
[3] = sgRNA knockout: sgATF4, 1000 nM
[4] = sgRNA knockout: sgATF4, 10000 nM
[5] = sgRNA knockout: sgATF6, 1000 nM
[6] = sgRNA knockout: sgATF6, 10000 nM
[7] = sgRNA knockout: sgATG7, 1000 nM
[8] = sgRNA knockout: sgATG7, 10000 nM
[9] = sgRNA knockout: sgERN1, 1000 nM
[10] = sgRNA knockout: sgERN1, 10000 nM
[11] = sgRNA knockout: sgHSF2, 1000 nM
[12] = sgRNA knockout: sgHSF2, 10000 nM
[13] = sgRNA knockout: sgNFE2L2, 10 nM
[14] = sgRNA knockout: sgNFE2L2, 100 nM
[15] = sgRNA knockout: sgNFE2L2, 1000 nM
[16] = sgRNA knockout: sgNFE2L2, 10000 nM
[17] = sgRNA knockout: sgSLC35F2, 10 nM
[18] = sgRNA knockout: sgSLC35F2, 100 nM
[19] = sgRNA knockout: sgSLC35F2, 1000 nM
[20] = sgRNA knockout: sgSLC35F2, 10000 nM
[21] = sgRNA knockout: sgXBP1, 1000 nM
[22] = sgRNA knockout: sgXBP1, 10000 nM

SMILES	relative cell number (sgRNA knockout: sgATF3, 10 nM)	relative cell number (sgRNA knockout: sgATF3, 100 nM)	relative cell number [1]	relative cell number [2]	relative cell number (sgRNA knockout: sgATF4, 10 nM)	relative cell number (sgRNA knockout: sgATF4, 100 nM)	relative cell number [3]	relative cell number [4]	relative cell number (sgRNA knockout: sgATF6, 10 nM)	relative cell number (sgRNA knockout: sgATF6, 100 nM)	relative cell number [5]	relative cell number [6]	relative cell number (sgRNA knockout: sgATG7, 10 nM)	relative cell number (sgRNA knockout: sgATG7, 100 nM)	relative cell number [7]	relative cell number [8]	relative cell number (sgRNA knockout: sgERN1, 10 nM)	relative cell number (sgRNA knockout: sgERN1, 100 nM)	relative cell number [9]	relative cell number [10]	relative cell number (sgRNA knockout: sgHSF2, 10 nM)	relative cell number (sgRNA knockout: sgHSF2, 100 nM)	relative cell number [11]	relative cell number [12]	relative cell number [13]	relative cell number [14]	relative cell number [15]	relative cell number [16]	relative cell number [17]	relative cell number [18]	relative cell number [19]	relative cell number [20]	relative cell number (sgRNA knockout: sgXBP1, 10 nM)	relative cell number (sgRNA knockout: sgXBP1, 100 nM)	relative cell number [21]	relative cell number [22]
Cc1nc(Nc2ncc(C(=O)Nc3c(C)cccc3Cl)s2)cc(N2CCN(CCO)CC2)n1 [Dasatinib]	90.1 ± 5.7	79 ± 20	75.6 ± 20	71.5 ± 16	67.7 ± 51	82.2 ± 41	77.6 ± 12	55.1 ± 20	104 ± 21	72.1 ± 43	42.8 ± 5.6	47.1 ± 4.8	73.7 ± 32	86.8 ± 7.2	85.7 ± 9.7	58.4 ± 22	62.5 ± 14	83.6 ± 8.9	51.8 ± 6.3	39.5 ± 10	85.66 ± 0.21	93.7 ± 8.1	65.5 ± 13	54.1 ± 9.4	103 ± 28	85.3 ± 25	70.2 ± 1.3	56.6 ± 12	79.9 ± 2.9	73.3 ± 50	59.8 ± 6	42.7 ± 15	97.6 ± 7.7	95.9 ± 9.2	62.2 ± 6.2	49.9 ± 3.3
C#Cc1cccc(Nc2ncnc3cc(OCCOC)c(OCCOC)cc23)c1 [Erlotinib]	108 ± 40	83.6 ± 2.7	95.6 ± 9.8	69.9 ± 8.6	127 ± 9.6	106 ± 25	83.1 ± 15	60.6 ± 3	84.3 ± 10	110 ± 34	79.6 ± 20	78 ± 19	91.3 ± 7.8	98.2 ± 36	71.2 ± 16	86.5 ± 39	117 ± 10	110 ± 2.3	110 ± 8.3	81.1 ± 5.4	98.5 ± 29	78.8 ± 3.4	92.1 ± 31	66.5 ± 11	119 ± 11	88.6 ± 12	86.5 ± 9.1	57.7 ± 0.87	97 ± 22	79.4 ± 34	87.2 ± 1.5	47.48 ± 0.074	101 ± 14	89.8 ± 9.2	89.2 ± 14	70 ± 7.3
Nc1ccn([C@@H]2O[C@H](CO)[C@@H](O)C2(F)F)c(=O)n1 [Gemcitabine]	64.9 ± 14	31.1 ± 6.6	28.9 ± 5.5	21.6 ± 3.6	56.3 ± 25	33.8 ± 5.7	28.3 ± 18	16.2 ± 11	38.8 ± 5.5	27.6 ± 6.7	21.2 ± 8.1	17.1 ± 2.8	47.3 ± 6.5	39.2 ± 12	25.5 ± 7.9	18.1 ± 5.7	42.73 ± 0.16	36 ± 9.5	36.4 ± 4.9	27.6 ± 0.82	45.8 ± 2.1	33.4 ± 4.4	24 ± 8.1	23.4 ± 5.5	49.55 ± 0.16	23.2 ± 0.63	26.4 ± 9.9	21.7 ± 2.2	47.7 ± 1.9	39.6 ± 14	20.5 ± 1.1	21.1 ± 7.1	40.8 ± 4	24.7 ± 4.2	26.3 ± 5.5	20.1 ± 4.1
Cc1cc2c(C(C)C)c(O)c(O)c(C=O)c2c(O)c1-c1c(C)cc2c(C(C)C)c(O)c(O)c(C=O)c2c1O [Gossypol]	102 ± 32	89.3 ± 19	76.3 ± 2.4	33.7 ± 4.7	101 ± 1.2	110 ± 16	135 ± 57	37.2 ± 14	115 ± 62	62.4 ± 11	127 ± 12	32.1 ± 3.2	92.9 ± 20	105 ± 19	127.2 ± 0.67	27.4 ± 0.95	97.6 ± 2.8	99.55 ± 0.16	109 ± 21	37.4 ± 16	104 ± 7	93.4 ± 4.5	108 ± 23	34.6 ± 2.5	113 ± 32	86.7 ± 8.2	130 ± 31	32.8 ± 11	112 ± 62	131 ± 66	77.6 ± 33	46.6 ± 9.8	119 ± 24	91.5 ± 5.7	115 ± 6	32.8 ± 1
COc1cc2c(cc1-c1c(C)noc1C)ncc1[nH]c(=O)n([C@H](C)c3ccccn3)c12 [IBET151]	115 ± 3.1	99.6 ± 20	52.4 ± 1.4	32.7 ± 4.3	135 ± 29	108 ± 2.8	64.3 ± 9.3	40.7 ± 23	107 ± 23	135 ± 56	37 ± 1.9	27 ± 0.49	79.3 ± 14	89.8 ± 22	64.5 ± 16	35.4 ± 11	85.2 ± 28	72 ± 1.4	64.4 ± 6.7	41.5 ± 2.7	101 ± 2.2	90.7 ± 7.5	50.1 ± 0.83	33.6 ± 2.2	103 ± 42	87 ± 6.8	59.6 ± 17	42 ± 0.67	85 ± 22	97.9 ± 33	58.9 ± 14	56.3 ± 25	97.3 ± 30	82.5 ± 24	51.4 ± 3.9	29.7 ± 7.5
O=C(/C=C/c1ccc(O)cc1)c1ccc(O)cc1O [Isoliquiritigenin]	104 ± 13	106 ± 38	108 ± 24	84.5 ± 13	86.1 ± 8.4	118 ± 69	100 ± 6.8	108 ± 19	97 ± 24	83.5 ± 9.5	88.9 ± 23	102 ± 23	124 ± 30	81 ± 2.3	116 ± 25	96.5 ± 13	84.7 ± 7	91.5 ± 14	89.2 ± 15	106 ± 14	110 ± 4.3	108 ± 40	95 ± 11	96.7 ± 31	131 ± 7.9	117 ± 11	79.3 ± 3.2	106 ± 6.7	102 ± 25	110 ± 36	92.4 ± 18	110 ± 15	106 ± 21	102 ± 7.3	90.6 ± 7.1	96.7 ± 11
COc1cc2nccc(Oc3ccc(NC(=O)NC4CC4)c(Cl)c3)c2cc1C(N)=O [Lenvatinib]	122 ± 16	92.6 ± 4.5	112 ± 10	74.1 ± 1.5	153 ± 29	118 ± 1.9	116 ± 13	83.2 ± 5.9	96.9 ± 6	110 ± 31	103 ± 26	71.9 ± 9.7	98.2 ± 13	100 ± 27	91.4 ± 4.4	84.5 ± 1.7	117 ± 29	126.1 ± 0.24	132 ± 30	80.4 ± 15	96.4 ± 4.9	94.1 ± 34	117 ± 17	87.1 ± 22	108 ± 3.5	117 ± 42	121 ± 16	88.1 ± 22	96.7 ± 36	79.2 ± 7.6	83.2 ± 25	72.8 ± 2.5	112 ± 4.8	104 ± 34	111 ± 13	83.1 ± 30
